Data taken from article PMC12153781.
No constants are given. Whether binding was seen depends on the method and setting. Binding seen in cells or lysates may run through a third protein. Some entries that bind do so weakly or less than the wild type. For some assays here: Sequences can lack the tags named with a protein.

By UniProt entry, the sequences of proteins in these tests, tags left out.
UniProt Q9UN81: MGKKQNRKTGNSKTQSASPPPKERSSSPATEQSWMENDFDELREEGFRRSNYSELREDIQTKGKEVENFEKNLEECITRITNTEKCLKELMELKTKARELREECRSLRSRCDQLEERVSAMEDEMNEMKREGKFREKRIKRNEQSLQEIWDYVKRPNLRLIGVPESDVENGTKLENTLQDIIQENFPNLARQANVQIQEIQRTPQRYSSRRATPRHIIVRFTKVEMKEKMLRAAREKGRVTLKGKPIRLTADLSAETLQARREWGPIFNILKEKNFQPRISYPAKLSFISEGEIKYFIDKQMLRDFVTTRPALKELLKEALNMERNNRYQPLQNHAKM
UniProt P45973: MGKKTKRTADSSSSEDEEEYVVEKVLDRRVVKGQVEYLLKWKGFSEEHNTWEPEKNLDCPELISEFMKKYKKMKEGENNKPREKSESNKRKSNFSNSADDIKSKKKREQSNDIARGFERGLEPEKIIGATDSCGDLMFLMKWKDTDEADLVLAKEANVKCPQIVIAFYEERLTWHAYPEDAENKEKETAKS

Legend:
[1] = molecular target: T1, SLFN11 (endogenous) (human (endogenous in 293FT)) (UniProt Q7Z7L1); assay: co-IP; endogenous proteins in 293FT cells; immunoprecipitated with anti-SLFN11 antibodies, immunoblot for the indicated proteins
T1 sequence: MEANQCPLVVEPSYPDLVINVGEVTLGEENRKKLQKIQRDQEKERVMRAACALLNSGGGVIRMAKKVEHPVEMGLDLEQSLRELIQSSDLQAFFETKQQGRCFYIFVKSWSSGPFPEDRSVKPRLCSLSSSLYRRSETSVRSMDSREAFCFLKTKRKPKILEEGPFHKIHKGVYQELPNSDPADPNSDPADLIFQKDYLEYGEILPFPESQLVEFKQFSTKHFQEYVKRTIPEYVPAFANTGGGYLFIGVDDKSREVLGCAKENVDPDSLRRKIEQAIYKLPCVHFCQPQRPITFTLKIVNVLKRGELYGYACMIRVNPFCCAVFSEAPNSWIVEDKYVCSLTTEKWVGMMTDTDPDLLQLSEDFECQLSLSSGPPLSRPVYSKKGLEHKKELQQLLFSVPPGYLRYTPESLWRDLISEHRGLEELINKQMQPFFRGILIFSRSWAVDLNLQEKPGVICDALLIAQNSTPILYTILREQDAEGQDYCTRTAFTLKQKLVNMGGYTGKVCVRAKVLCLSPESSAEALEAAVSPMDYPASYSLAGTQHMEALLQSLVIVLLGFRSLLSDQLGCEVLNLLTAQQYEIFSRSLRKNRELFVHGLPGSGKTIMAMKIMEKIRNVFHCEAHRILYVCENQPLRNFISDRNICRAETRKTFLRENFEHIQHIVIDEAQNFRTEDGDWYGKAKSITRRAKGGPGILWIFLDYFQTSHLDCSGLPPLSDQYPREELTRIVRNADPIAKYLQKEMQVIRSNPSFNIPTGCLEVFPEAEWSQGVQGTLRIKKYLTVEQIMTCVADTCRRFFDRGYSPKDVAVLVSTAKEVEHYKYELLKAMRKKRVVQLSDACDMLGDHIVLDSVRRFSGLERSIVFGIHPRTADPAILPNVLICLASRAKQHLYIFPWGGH

[2] = molecular target: Myc-tagged LINE-1 ORF1p (human) (UniProt Q9UN81); assay: co-IP; Myc-ORF1p co-expressed with Flag-SLFN11 or Flag-MOV10 in 293T cells; NETN buffer (20 mM Tris-HCl pH 8.0, 100 mM NaCl, 1 mM EDTA, 0.5% NP-40); lysates treated with RNase A (100 ug/mL) or left untreated; immunoprecipitated with anti-Myc (legend; methods say anti-Flag M2), immunoblot

heterochromatin protein 1α (HP1α/CBX5) (from UniProt P45973 1-191)
binding [1]: binds

B1: Flag-tagged SLFN11 (protein, UniProt Q7Z7L1 1-901)
chain: T1 sequence
binding [2]: no binding
